Data reported in paper PMC5445107.
These are yes or no findings as the source states them, for the method shown. Binding seen in cells or lysates may run through a third protein. Some results given as binding are weak or reduced against the parent protein; the word gives no strength.

By UniProt entry, the sequences of proteins in these tests, tags left out. Where a name states a change or a piece, a line headed by the entry shows the natural chain unless it says otherwise.
UniProt Q99720: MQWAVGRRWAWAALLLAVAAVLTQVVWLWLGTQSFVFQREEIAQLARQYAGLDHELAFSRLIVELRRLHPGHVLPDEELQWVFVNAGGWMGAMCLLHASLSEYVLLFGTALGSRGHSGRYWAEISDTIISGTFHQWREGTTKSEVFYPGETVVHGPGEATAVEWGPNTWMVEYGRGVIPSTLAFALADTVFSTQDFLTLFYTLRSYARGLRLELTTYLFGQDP

How the values were obtained:
[1] = biological target: GFP-Cav2.2 channels (α1b+β1b+α2δ1 subunits) (UniProt Q02294); test: co-IP; HEK-293T cells co-expressing both, RIPA lysate; precipitated with anti-sigma-1 receptor or anti-Cav2.2 antibody and agarose A beads at 4°C; blots with anti-Cav2.2 or anti-sigma-1 receptor antibody; IgG as negative control
[2] = biological target: sigma-1 receptor-Dsred (human) (UniProt Q99720); test: as above

Row | binding [1] | binding [2] | Substance
1 | binds |  | sigma-1 receptor-Dsred (from UniProt Q99720-1 1-223)
2 |  | binds | GFP-Cav2.2 channels (α1b+β1b+α2δ1 subunits) (from UniProt Q02294 1-2336; Q02641-1 1-598; P54290 25-1091) (complex)
